The target of the assay is T1, FLAG-ATGL (adipose triglyceride lipase) (not stated (human or mouse cDNA cloned)) (UniProt Q8BJ56).
T1 sequence: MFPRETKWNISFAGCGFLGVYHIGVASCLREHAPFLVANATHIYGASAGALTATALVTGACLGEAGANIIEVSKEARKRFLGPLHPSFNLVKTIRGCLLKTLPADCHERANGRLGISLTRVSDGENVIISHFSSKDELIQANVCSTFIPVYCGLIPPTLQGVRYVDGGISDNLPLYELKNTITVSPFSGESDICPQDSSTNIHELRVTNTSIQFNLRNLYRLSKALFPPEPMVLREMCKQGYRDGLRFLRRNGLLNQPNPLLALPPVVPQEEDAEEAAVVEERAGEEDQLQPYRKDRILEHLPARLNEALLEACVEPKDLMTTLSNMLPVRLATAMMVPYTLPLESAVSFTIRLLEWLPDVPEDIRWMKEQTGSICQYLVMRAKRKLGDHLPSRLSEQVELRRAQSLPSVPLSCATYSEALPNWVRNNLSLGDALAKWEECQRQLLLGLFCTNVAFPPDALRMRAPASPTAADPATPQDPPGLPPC
In words: affinity purification with mass spectrometry; FLAG-ATGL expressed in HCT116 cells, hypoxia 24 hr; anti-FLAG M2 agarose gels, 4 hr at 4°C, lysis buffer 50 mM Tris-HCl pH 7.4, 150 mM NaCl, 1% Triton X-100, 1 mM DTT; eluate on 10-20% SDS-PAGE, gel portions digested with trypsin, LC-ESI-MS/MS.

These are yes or no findings as the source states them, for the method shown. Binding seen in cells or lysates may run through a third protein. Here binding means that the protein was enriched with, or labelled near, the bait; the list need not be complete. Where a sequence is shown, tags or fusion partners need not be part of it.

B1: HIG2 (hypoxia-inducible gene 2 protein), endogenous (protein, UniProt Q9Y5L2 1-63)
chain: MKHVLNLYLLGVVLTLLSIFVRVMESLEGLLESPSPGTSWTTRSQLANTEPTKGLPDHPSRSM
For the molecule B1, the binding entry is “binds”.
